Two substances from patent US5234907A (Hoffmann-La Roche Inc., priority 1991, dated 1993) can be followed below.

A short description of data set [1]: solid-phase peptide synthesis. Conditions: whole synthesis, scale 0.1 mmol.
Data set [2] in a line: Fmoc solid-phase peptide synthesis; Fmoc-Tm-MBHA resin; DCC or DIC, HOBT; preformed symmetrical anhydrides. Particulars: whole synthesis, scale 0.11 mmol.

Ac-(SEQ ID NO: 19)-NH2: in data set [1], the crude mass came to 280 mg and the isolated mass was determined as 12.4 mg.
For Ac-(SEQ ID NO: 12)-NH2, the isolated mass in data set [2] is 35.7 mg.
